Binding data for four substances are collected here from PMC8184998.

Amino acid sequences for entries named in this document (tags omitted).
UniProt Q8N726: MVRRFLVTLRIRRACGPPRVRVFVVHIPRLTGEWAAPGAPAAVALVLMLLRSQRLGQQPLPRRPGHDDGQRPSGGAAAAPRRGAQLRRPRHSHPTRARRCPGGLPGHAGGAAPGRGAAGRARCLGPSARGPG
UniProt P78395: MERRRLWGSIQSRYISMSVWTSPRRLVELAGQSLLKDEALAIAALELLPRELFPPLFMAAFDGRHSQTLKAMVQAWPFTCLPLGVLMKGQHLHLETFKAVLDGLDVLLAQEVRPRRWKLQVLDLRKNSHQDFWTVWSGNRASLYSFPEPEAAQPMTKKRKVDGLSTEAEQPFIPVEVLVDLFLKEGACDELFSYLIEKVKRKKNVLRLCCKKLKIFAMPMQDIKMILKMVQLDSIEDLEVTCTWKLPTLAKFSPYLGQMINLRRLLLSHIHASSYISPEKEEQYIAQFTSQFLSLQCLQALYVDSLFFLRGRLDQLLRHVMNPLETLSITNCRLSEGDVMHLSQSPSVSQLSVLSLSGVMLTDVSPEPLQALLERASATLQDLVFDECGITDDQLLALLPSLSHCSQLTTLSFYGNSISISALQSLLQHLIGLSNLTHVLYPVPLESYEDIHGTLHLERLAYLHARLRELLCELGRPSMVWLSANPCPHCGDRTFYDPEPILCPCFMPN
UniProt Q15370: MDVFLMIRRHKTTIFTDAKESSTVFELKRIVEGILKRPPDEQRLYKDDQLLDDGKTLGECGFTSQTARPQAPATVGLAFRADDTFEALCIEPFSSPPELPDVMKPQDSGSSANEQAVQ

Results are given in words; binding and its absence hold for the method and conditions named. Binding seen in cells or lysates may run through a third protein. Some results given as binding are weak or reduced against the parent protein; the word gives no strength.

In assay [1] the target is Flag-p14/ARF (human) (UniProt Q8N726). The assay is described as follows: co-IP; Flag-tagged p14/ARF and HA-tagged Prame transfected into HEK293T cells for 24 h; total cell lysates immunoprecipitated with anti-HA beads (blot Flag) or anti-Flag M2 beads (blot HA).
The target in assay [2] is p14/ARF (human (endogenous in HepG2 and H1299)) (UniProt Q8N726). The assay is described as follows: co-IP; endogenous proteins; cells (H1299, HepG2) pretreated with MG-132 for 2 h; extracts incubated with primary antibody (p14/ARF or RBX1) or control IgG overnight at 4 °C, protein A/G magnetic beads 2 h; immunoblotting. For orientation: Immunoblotting shows a protein as a band on a membrane.

In assay [3] the target is HA-Prame (human) (UniProt P78395). As to the kind of experiment: co-IP; Flag-tagged p14/ARF and HA-tagged Prame transfected into HEK293T cells for 24 h; total cell lysates immunoprecipitated with anti-HA beads (blot Flag) or anti-Flag M2 beads (blot HA).

Regarding HA-Prame (from UniProt P78395 1-509), the binding entry in assay [1] is recorded as “binds”. “Transcription Elongation Factor B Subunit 2 (EloB) (from UniProt Q15370 1-118)”: the binding entry in assay [2] is recorded as “binds”.

“Flag-p14/ARF (from UniProt Q8N726 1-132)”: in assay [3], the binding entry is listed as “binds”. Regarding “Preferentially Expressed Antigen in Melanoma (Prame) (from UniProt P78395 1-509)”, the binding entry in assay [2] was “binds”.
